Source: article PMC7103907
These are yes or no findings as the source states them, for the method shown. Binding seen in cells or lysates may run through a third protein. Some results given as binding are weak or reduced against the parent protein; the word gives no strength.

By UniProt entry, the sequences of proteins in these tests, tags left out.
UniProt P42768: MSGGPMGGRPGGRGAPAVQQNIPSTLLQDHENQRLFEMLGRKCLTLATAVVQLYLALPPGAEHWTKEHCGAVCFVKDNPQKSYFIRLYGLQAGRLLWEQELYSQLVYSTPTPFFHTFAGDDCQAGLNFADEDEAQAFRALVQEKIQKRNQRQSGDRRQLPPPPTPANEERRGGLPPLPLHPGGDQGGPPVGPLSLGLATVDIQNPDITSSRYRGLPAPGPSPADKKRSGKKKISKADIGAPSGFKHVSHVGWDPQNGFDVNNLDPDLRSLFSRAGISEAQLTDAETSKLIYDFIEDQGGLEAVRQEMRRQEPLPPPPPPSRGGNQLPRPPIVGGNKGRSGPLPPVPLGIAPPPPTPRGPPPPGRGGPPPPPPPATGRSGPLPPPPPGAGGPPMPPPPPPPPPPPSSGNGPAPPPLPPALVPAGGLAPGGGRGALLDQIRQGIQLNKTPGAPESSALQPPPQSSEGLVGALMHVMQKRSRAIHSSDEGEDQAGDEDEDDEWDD
UniProt Q8R4B8: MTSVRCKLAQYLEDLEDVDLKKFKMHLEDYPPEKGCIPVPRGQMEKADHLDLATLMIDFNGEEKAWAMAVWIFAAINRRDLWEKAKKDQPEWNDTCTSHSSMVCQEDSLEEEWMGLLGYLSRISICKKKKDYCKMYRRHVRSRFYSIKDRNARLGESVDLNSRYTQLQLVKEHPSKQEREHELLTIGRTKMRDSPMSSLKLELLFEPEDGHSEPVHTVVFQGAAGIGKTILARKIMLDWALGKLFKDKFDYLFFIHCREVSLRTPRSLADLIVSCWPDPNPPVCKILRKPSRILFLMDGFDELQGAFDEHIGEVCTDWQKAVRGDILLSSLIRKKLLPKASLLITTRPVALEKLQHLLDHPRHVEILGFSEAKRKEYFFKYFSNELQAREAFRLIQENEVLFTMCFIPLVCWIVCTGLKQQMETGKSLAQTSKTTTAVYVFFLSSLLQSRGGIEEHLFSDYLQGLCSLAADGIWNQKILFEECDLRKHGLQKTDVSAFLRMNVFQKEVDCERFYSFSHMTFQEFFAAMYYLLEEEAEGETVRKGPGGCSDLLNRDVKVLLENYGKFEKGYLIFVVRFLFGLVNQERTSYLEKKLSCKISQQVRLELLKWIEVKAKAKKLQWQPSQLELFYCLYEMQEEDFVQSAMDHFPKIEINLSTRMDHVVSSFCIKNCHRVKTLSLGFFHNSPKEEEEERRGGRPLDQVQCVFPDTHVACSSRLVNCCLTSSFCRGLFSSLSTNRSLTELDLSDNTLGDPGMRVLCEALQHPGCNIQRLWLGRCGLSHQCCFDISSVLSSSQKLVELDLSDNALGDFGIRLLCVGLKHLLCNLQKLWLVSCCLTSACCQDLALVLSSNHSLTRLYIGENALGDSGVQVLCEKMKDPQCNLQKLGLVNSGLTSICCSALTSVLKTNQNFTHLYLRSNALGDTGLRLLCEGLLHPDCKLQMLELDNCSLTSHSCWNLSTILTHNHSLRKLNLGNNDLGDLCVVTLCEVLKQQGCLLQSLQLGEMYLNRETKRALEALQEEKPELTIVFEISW
UniProt Q92747: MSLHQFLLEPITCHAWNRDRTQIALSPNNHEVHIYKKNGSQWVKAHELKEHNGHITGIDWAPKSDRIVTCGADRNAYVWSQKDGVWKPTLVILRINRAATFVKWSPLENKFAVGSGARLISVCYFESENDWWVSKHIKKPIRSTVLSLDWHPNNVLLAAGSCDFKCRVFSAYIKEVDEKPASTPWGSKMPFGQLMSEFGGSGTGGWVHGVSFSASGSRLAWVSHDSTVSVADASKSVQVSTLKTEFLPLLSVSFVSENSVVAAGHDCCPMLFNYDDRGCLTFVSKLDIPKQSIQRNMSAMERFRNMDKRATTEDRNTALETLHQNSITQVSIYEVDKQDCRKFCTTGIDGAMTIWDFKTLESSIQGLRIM
UniProt P18760: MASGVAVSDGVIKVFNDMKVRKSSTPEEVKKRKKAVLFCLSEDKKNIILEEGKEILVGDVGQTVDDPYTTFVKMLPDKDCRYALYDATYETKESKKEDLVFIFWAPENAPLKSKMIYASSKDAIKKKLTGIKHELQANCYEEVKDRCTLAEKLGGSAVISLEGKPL

How the values were obtained:
full-length WASP = full-length WASP (UniProt P42768); test: co-IP; immunoprecipitation of ARPC1B or ARPC1A with VCA and WASP; cells and constructs not stated
[1] = biological target: NLRP3 (mouse (endogenous in BMDM)) (UniProt Q8R4B8); test: co-IP; mouse bone marrow-derived macrophages (BMDM)
[2] = biological target: NLRP3 (mouse (endogenous in BMDM)) (UniProt Q8R4B8); test: condition: only cells stimulated with NLRP3 inflammasome activators (ATP or nigericin); co-IP; BMDM stimulated with known NLRP3 inflammasome activators, such as ATP or nigericin
P2X7 = biological target: T1, P2X7 (UniProt Q9Z1M0); test: co-IP; cells and constructs not stated
T1 sequence: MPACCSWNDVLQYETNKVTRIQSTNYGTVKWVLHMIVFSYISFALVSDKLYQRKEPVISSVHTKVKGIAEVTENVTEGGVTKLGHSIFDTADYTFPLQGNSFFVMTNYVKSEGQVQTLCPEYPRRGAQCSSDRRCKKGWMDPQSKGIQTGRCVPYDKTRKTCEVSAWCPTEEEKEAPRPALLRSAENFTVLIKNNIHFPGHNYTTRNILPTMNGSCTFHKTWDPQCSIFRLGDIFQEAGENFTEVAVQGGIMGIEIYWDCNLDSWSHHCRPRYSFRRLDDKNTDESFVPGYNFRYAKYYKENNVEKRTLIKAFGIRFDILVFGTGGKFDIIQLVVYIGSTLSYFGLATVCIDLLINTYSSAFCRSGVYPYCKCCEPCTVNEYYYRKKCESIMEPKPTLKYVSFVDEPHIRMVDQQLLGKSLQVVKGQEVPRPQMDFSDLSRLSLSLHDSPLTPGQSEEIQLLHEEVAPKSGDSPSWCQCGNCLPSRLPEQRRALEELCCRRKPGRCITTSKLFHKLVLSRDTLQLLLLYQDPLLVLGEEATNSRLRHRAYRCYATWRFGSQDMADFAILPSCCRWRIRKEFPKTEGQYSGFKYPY

ARPC1A (from UniProt Q92747 1-370)
binding (full-length WASP): binds

Cofilin-1 (from UniProt P18760 1-166)
binding [1]: binds | binding [2]: no binding

B1: Eros (protein, UniProt Q3TYS2 1-187)
chain: MYMQVETRTSTRLHLKRAPGIRSWSLLVGILSTGLAAAYYSGDSLGWKLFYVTGCLFVAVQNLEDWEEAIFNKNTGKVILKTFSLYKKLLTLLRAGHDQVVVLLKDIQDVNVEEEKVRYFGKGYMVVLRFATGFSHPLTQSAVMGRRSDVEAIAKLITSFLELHRLESPSERSQSSDSEPDGPGGQS
binding (P2X7): binds
